Experimental findings from the supplement of paper PMC4604168 (melanoma cell lines) are described below.

Test systems include 501Mel; A101D; A2058; A375; C32; CBRC008; CBRC014; CBRC016; CBRC017.
Holding throughout (experiment): cleaved PARP positive nuclei fraction relative to DMSO control; melanoma cells; higher = more apoptosis
Holding throughout (conditions): library dose: low library concentration; 72 h

The list shows a part of the results. Repeats are few or missing, and single values can be far off.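 Imaging used 1,536-well plates; nuclei positive for cleaved PARP by antibody were divided by total DNA-stained nuclei to yield the apoptosis fraction. Doses for screening kept most cells viable, and cell lines differ markedly in resting and induced cleaved-PARP levels.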

As to `N.N.[Cl][Pt][Cl]` [cisplatin] + OCc1c[nH]c2ccccc12 [Indole-3-carbinol] (first compound 1.6 µM, partner dose 0.8 µM), the “cleaved PARP positive nuclei fraction” value in the assay with 501Mel was found to be 99.7%; in the assay with A101D it was 44.4%; in the assay with A2058, 104%; in the assay with A375, 119%; in the assay with C32, 37.1%; in the assay with CBRC008 it was 231%. For the same molecule, the “cleaved PARP positive nuclei fraction” value with CBRC014 came out at 93.4%; in the assay on CBRC016 (line from a melanoma biopsy) it was 91.6%; in the assay with CBRC017, 134%.
For `CS(=O)(=O)c1ccc(C(=O)Nc2ccc(Cl)c(-c3ccccn3)c2)c(Cl)c1` [vismodegib] + N.N.[Cl][Pt][Cl] [cisplatin] (first compound 1 µM, partner dose 1.6 µM), the “cleaved PARP positive nuclei fraction” value in the assay with 501Mel amounted to 46.7%; in the assay on A101D it was 116%; in the assay with A2058, 63.1%; in the assay with A375, 216%; in the assay with C32, 70.5%; with CBRC008, 80.2%. Besides, the “cleaved PARP positive nuclei fraction” value came to 88.3% in the assay on CBRC014 (line from a melanoma biopsy), 94.2% in the assay with CBRC016 and 176% in the assay on CBRC017 (line from a melanoma biopsy).
As to `C=C(c1ccc(C(=O)O)cc1)c1cc2c(cc1C)C(C)(C)CCC2(C)C` [Bexarotene] + C[As](C)SC[C@H](NC(=O)CC[C@H](N)C(=O)O)C(=O)NCC(=O)O [Darinaparsin] (first compound 2 µM, partner dose 0.4 µM), the “cleaved PARP positive nuclei fraction” value was determined as 42% with 501Mel; 88.4% in the assay with A101D; 55.5% in the assay on A2058; 18.2% in the assay on A375; 41% in the assay with C32; 44.9% with CBRC008. Besides, the “cleaved PARP positive nuclei fraction” value was 117% with CBRC014, 112% with CBRC016 and 110% in the assay on CBRC017.
With `Cc1cc(Nc2cc(N3CCN(C)CC3)nc(/C=C/c3ccccc3)n2)n[nH]1` + C[As](C)SC[C@H](NC(=O)CC[C@H](N)C(=O)O)C(=O)NCC(=O)O [Darinaparsin] (first compound 0.04 µM, partner dose 0.4 µM), the “cleaved PARP positive nuclei fraction” value with 501Mel came to 262%; with A101D, 258%; in the assay with A2058, 118%; in the assay with A375, 172%; in the assay on C32, 79.9%; in the assay on CBRC008 (line from a melanoma biopsy), 121%. The results for the “cleaved PARP positive nuclei fraction” value in the assay on CBRC014, in the assay on CBRC016 and in the assay with CBRC017 were 121%, 91% and 90.4%, respectively.
Consider `Cn1cc(C2=C(c3cn(C4CCN(Cc5ccccn5)CC4)c4ccccc34)C(=O)NC2=O)c2ccccc21` [Enzastaurin] + Cn1c(=O)n(-c2ccc(C(C)(C)C#N)cc2)c2c3cc(-c4cnc5ccccc5c4)ccc3ncc21 [NVP-BEZ235] (first compound 0.8 µM, partner dose 0.004 µM), for which the “cleaved PARP positive nuclei fraction” value turned out to be 96% in the assay on 501Mel; 197% in the assay with A101D; 49.9% with A2058; 80.2% in the assay with A375; 68.7% in the assay on C32; 142% with CBRC008. Besides, the “cleaved PARP positive nuclei fraction” value in the assay on CBRC014 was found to be 109%; in the assay with CBRC016 it was 128%; in the assay on CBRC017 it was 99.8%.
On to `CC(C)C[C@H](NC(=O)[C@H](Cc1ccccc1)NC(=O)c1cnccn1)B(O)O` [Bortezomib] + C[As](C)SC[C@H](NC(=O)CC[C@H](N)C(=O)O)C(=O)NCC(=O)O [Darinaparsin] (first compound 0.001 µM, partner dose 0.4 µM), for which the “cleaved PARP positive nuclei fraction” value with 501Mel is 1460%; in the assay on A101D it was 1160%; in the assay on A2058, 143%; in the assay on A375, 91%; with C32, 89.6%; with CBRC008, 425%. For the same molecule, the “cleaved PARP positive nuclei fraction” value in the assay on CBRC014 came to 169%; in the assay with CBRC016, 633%; in the assay with CBRC017, 192%.
In the case of `C[C@]12O[C@H](C[C@]1(O)CO)n1c3ccccc3c3c4c(c5c6ccccc6n2c5c31)CNC4=O` [Lestaurtinib] + C[C@]1(O)C[C@@H](c2nc(-c3ccc4ccc(-c5ccccc5)nc4c3)c3c(N)nccn32)C1 [OSI906] (first compound 0.004 µM, partner dose 0.4 µM), the “cleaved PARP positive nuclei fraction” value with 501Mel was found to be 102%; with A101D, 213%; in the assay with A2058, 132%; in the assay with A375, 488%; in the assay on C32, 173%; in the assay on CBRC008 it was 133%. Besides, the results for the “cleaved PARP positive nuclei fraction” value in the assay on CBRC014, in the assay with CBRC016 and in the assay with CBRC017 were 124%, 39.6% and 135%, respectively.
Take `Cc1cc(Nc2cc(N3CCN(C)CC3)nc(Sc3ccc(NC(=O)C4CC4)cc3)n2)n[nH]1` [Tozasertib] + C[C@]12O[C@H](C[C@]1(O)CO)n1c3ccccc3c3c4c(c5c6ccccc6n2c5c31)CNC4=O [Lestaurtinib] (first compound 0.006 µM, partner dose 0.004 µM): the “cleaved PARP positive nuclei fraction” value stood at 83.3% with 501Mel; 45.4% in the assay with A101D; 96% in the assay on A2058; 63.3% in the assay on A375; 33.6% with C32; 54% in the assay on CBRC008. Also, the results for the “cleaved PARP positive nuclei fraction” value in the assay on CBRC014, in the assay on CBRC016 and in the assay with CBRC017 were 92.4%, 101% and 81%, respectively.
As to `Cc1cc(Nc2cc(N3CCN(C)CC3)nc(Sc3ccc(NC(=O)C4CC4)cc3)n2)n[nH]1` [Tozasertib] + N.N.[Cl][Pt][Cl] [cisplatin] (first compound 0.006 µM, partner dose 1.6 µM), the “cleaved PARP positive nuclei fraction” value stood at 80.4% in the assay with 501Mel; 106% in the assay on A101D; 31.3% in the assay with A2058; 103% in the assay with A375; 75.6% in the assay on C32; 49% with CBRC008. Further, the “cleaved PARP positive nuclei fraction” value with CBRC014 came out at 100%; with CBRC016 it was 208%; in the assay with CBRC017, 126%.
Turning to `CO[C@H]1C[C@@H]2CC[C@@H](C)[C@@](O)(O2)C(=O)C(=O)N2CCCC[C@H]2C(=O)O[C@H]([C@H](C)C[C@@H]2CC[C@@H](OCCO)[C@H](OC)C2)CC(=O)[C@H](C)/C=C(\C)[C@@H](O)[C@@H](OC)C(=O)[C@H](C)C[C@H](C)/C=C/C=C/C=C/1C` [everolimus] + C[As](C)SC[C@H](NC(=O)CC[C@H](N)C(=O)O)C(=O)NCC(=O)O [Darinaparsin] (first compound 0.02 µM, partner dose 0.4 µM), the “cleaved PARP positive nuclei fraction” value turned out to be 303% in the assay on 501Mel; 59.2% with A101D; 96.3% in the assay with A2058; 733% in the assay with A375; 99.4% with C32; 177% in the assay on CBRC008. Moreover, the “cleaved PARP positive nuclei fraction” value in the assay with CBRC014 amounted to 107%; with CBRC016, 73.7%; with CBRC017, 153%.
For `C[C@]12O[C@H](C[C@]1(O)CO)n1c3ccccc3c3c4c(c5c6ccccc6n2c5c31)CNC4=O` [Lestaurtinib] + Clc1ccc(Nc2nnc(Cc3ccncc3)c3ccccc23)cc1 [vatalanib] (first compound 0.004 µM, partner dose 2 µM), the “cleaved PARP positive nuclei fraction” value with 501Mel is 189%; with A101D, 95.7%; with A2058, 114%; in the assay with A375, 129%; with C32 it was 69.6%; in the assay with CBRC008 it was 65.5%. The “cleaved PARP positive nuclei fraction” value with CBRC014 came to 98.3%; in the assay with CBRC016, 143%; with CBRC017 it was 93.3%.
